Consider three molecules from publication PMC10104637, “Phosphorylation of USP29 by CDK1 Governs TWIST1 Stability and Oncogenic Functions” (Advanced Science, 2023).

Protein sequences, listed by entry. Tags and fused reporters are not part of them.
UniProt Q15672: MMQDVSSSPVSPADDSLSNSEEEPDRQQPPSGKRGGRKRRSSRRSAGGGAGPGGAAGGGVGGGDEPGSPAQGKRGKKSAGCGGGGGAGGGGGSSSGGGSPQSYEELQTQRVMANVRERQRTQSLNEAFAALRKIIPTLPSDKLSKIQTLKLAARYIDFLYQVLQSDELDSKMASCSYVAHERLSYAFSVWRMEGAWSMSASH
UniProt Q9NVI1: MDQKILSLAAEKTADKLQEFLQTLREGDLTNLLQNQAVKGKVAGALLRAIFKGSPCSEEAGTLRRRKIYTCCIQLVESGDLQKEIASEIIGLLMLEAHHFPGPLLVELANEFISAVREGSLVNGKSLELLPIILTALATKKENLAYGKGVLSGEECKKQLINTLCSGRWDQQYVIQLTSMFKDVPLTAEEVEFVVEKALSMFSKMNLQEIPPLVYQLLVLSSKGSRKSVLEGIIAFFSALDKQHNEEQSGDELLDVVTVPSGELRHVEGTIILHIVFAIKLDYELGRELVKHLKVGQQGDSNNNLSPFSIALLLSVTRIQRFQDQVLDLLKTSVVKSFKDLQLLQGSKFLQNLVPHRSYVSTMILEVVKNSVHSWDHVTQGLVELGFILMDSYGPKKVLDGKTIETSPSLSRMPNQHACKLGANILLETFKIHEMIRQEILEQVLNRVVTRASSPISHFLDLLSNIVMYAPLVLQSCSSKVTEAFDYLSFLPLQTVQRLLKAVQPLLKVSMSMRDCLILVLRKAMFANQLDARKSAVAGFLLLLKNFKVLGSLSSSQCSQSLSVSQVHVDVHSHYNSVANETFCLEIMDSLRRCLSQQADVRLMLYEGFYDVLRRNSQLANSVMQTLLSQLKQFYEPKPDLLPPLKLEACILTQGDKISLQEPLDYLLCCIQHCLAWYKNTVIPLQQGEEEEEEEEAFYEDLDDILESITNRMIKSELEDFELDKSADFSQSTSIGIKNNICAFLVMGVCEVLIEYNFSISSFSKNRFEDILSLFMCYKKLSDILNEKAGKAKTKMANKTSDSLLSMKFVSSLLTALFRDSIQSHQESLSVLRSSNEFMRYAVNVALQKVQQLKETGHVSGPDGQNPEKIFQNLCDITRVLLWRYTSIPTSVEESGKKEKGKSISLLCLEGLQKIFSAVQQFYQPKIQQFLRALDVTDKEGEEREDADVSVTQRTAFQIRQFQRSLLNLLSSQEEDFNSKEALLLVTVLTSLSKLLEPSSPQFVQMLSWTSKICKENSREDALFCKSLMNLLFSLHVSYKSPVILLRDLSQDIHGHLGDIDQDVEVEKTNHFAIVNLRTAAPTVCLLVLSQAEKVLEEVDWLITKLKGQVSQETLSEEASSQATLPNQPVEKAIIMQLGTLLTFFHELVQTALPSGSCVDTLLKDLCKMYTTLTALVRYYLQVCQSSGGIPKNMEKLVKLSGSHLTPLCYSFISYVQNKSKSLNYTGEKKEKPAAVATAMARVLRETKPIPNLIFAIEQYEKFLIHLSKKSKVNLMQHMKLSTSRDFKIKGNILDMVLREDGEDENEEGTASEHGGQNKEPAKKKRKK

No constants are given. Whether binding was seen depends on the method and setting. Binding seen in cells or lysates may run through a third protein. These calls come from enrichment with a bait or labelling near it, and not all partners need be listed. For part of these data: Sequences can lack the tags named with a protein.

Experiment [1] addresses T1, Flag-USP29 (stably expressed in MDA-MB-231) (UniProt Q9HBJ7).
T1 sequence: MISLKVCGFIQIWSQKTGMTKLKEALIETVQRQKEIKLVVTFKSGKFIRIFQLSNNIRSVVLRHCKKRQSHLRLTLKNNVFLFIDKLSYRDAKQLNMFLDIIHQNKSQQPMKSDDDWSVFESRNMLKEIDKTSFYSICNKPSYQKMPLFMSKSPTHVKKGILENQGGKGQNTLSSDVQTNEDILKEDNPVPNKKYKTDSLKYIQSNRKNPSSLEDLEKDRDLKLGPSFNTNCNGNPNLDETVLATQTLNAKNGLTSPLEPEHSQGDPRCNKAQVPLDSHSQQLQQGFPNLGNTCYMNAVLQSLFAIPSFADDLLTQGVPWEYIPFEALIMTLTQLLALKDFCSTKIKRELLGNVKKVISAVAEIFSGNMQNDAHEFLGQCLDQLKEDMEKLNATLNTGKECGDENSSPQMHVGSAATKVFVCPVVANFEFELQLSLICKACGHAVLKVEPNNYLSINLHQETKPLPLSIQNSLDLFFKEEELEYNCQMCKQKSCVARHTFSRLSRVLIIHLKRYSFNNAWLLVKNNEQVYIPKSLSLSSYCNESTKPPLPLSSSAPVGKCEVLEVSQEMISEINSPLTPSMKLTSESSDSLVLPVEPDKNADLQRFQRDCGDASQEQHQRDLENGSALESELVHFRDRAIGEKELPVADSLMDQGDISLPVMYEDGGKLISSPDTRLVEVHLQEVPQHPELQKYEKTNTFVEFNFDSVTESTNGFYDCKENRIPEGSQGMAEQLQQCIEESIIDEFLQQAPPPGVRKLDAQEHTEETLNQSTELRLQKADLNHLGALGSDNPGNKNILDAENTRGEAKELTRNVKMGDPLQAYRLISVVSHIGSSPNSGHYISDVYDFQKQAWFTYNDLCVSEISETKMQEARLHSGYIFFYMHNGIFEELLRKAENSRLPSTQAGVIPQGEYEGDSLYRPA
Briefly: affinity purification with mass spectrometry; tandem affinity purification of USP29 complexes from MDA-MB-231 cells stably expressing Flag-USP29.

Experiment [2] has as its target Flag-TWIST1 (UniProt Q15672). Briefly: affinity purification with mass spectrometry; tandem affinity purification of TWIST1 complexes from MDA-MB-231 cells stably expressing Flag-TWIST1.

For the molecule “FANCI (found with Flag-USP29 in MDA-MB-231) (from UniProt Q9NVI1 1-1328)”, in experiment [1], the binding entry is recorded as “binds”.

B1: USP29 (endogenous) (enzyme, UniProt Q9HBJ7 1-922)
chain: MISLKVCGFIQIWSQKTGMTKLKEALIETVQRQKEIKLVVTFKSGKFIRIFQLSNNIRSVVLRHCKKRQSHLRLTLKNNVFLFIDKLSYRDAKQLNMFLDIIHQNKSQQPMKSDDDWSVFESRNMLKEIDKTSFYSICNKPSYQKMPLFMSKSPTHVKKGILENQGGKGQNTLSSDVQTNEDILKEDNPVPNKKYKTDSLKYIQSNRKNPSSLEDLEKDRDLKLGPSFNTNCNGNPNLDETVLATQTLNAKNGLTSPLEPEHSQGDPRCNKAQVPLDSHSQQLQQGFPNLGNTCYMNAVLQSLFAIPSFADDLLTQGVPWEYIPFEALIMTLTQLLALKDFCSTKIKRELLGNVKKVISAVAEIFSGNMQNDAHEFLGQCLDQLKEDMEKLNATLNTGKECGDENSSPQMHVGSAATKVFVCPVVANFEFELQLSLICKACGHAVLKVEPNNYLSINLHQETKPLPLSIQNSLDLFFKEEELEYNCQMCKQKSCVARHTFSRLSRVLIIHLKRYSFNNAWLLVKNNEQVYIPKSLSLSSYCNESTKPPLPLSSSAPVGKCEVLEVSQEMISEINSPLTPSMKLTSESSDSLVLPVEPDKNADLQRFQRDCGDASQEQHQRDLENGSALESELVHFRDRAIGEKELPVADSLMDQGDISLPVMYEDGGKLISSPDTRLVEVHLQEVPQHPELQKYEKTNTFVEFNFDSVTESTNGFYDCKENRIPEGSQGMAEQLQQCIEESIIDEFLQQAPPPGVRKLDAQEHTEETLNQSTELRLQKADLNHLGALGSDNPGNKNILDAENTRGEAKELTRNVKMGDPLQAYRLISVVSHIGSSPNSGHYISDVYDFQKQAWFTYNDLCVSEISETKMQEARLHSGYIFFYMHNGIFEELLRKAENSRLPSTQAGVIPQGEYEGDSLYRPA
Consider B1, for which, in experiment [2], the binding entry was “binds”.

B2: MYBBP1A (found with Flag-USP29 in MDA-MB-231) (protein, UniProt Q9BQG0 1-1328)
chain: MESRDPAQPMSPGEATQSGARPADRYGLLKHSREFLDFFWDIAKPEQETRLAATEKLLEYLRGRPKGSEMKYALKRLITGLGVGRETARPCYSLALAQLLQSFEDLPLCSILQQIQEKYDLHQVKKAMLRPALFANLFGVLALFQSGRLVKDQEALMKSVKLLQALAQYQNHLQEQPRKALVDILSEVSKATLQEILPEVLKADLNIILSSPEQLELFLLAQQKVPSKLKKLVGSVNLFSDENVPRLVNVLKMAASSVKKDRKLPAIALDLLRLALKEDKFPRFWKEVVEQGLLKMQFWPASYLCFRLLGAALPLLTKEQLHLVMQGDVIRHYGEHVCTAKLPKQFKFAPEMDDYVGTFLEGCQDDPERQLAVLVAFSSVTNQGLPVTPTFWRVVRFLSPPALQGYVAWLRAMFLQPDLDSLVDFSTNNQKKAQDSSLHMPERAVFRLRKWIIFRLVSIVDSLHLEMEEALTEQVARFCLFHSFFVTKKPTSQIPETKHPFSFPLENQAREAVSSAFFSLLQTLSTQFKQAPGQTQGGQPWTYHLVQFADLLLNHSHNVTTVTPFTAQQRQAWDRMLQTLKELEAHSAEARAAAFQHLLLLVGIHLLKSPAESCDLLGDIQTCIRKSLGEKPRRSRTKTIDPQEPPWVEVLVEILLALLAQPSHLMRQVARSVFGHICSHLTPRALQLILDVLNPETSEDENDRVVVTDDSDERRLKGAEDKSEEGEDNRSSESEEESEGEESEEEERDGDVDQGFREQLMTVLQAGKALGGEDSENEEELGDEAMMALDQSLASLFAEQKLRIQARRDEKNKLQKEKALRRDFQIRVLDLVEVLVTKQPENALVLELLEPLLSIIRRSLRSSSSKQEQDLLHKTARIFTHHLCRARRYCHDLGERAGALHAQVERLVQQAGRQPDSPTALYHFNASLYLLRVLKGNTAEGCVHETQEKQKAGTDPSHMPTGPQAASCLDLNLVTRVYSTALSSFLTKRNSPLTVPMFLSLFSRHPVLCQSLLPILVQHITGPVRPRHQACLLLQKTLSMREVRSCFEDPEWKQLMGQVLAKVTENLRVLGEAQTKAQHQQALSSLELLNVLFRTCKHEKLTLDLTVLLGVLQGQQQSLQQGAHSTGSSRLHDLYWQAMKTLGVQRPKLEKKDAKEIPSATQSPISKKRKKKGFLPETKKRKKRKSEDGTPAEDGTPAATGGSQPPSMGRKKRNRTKAKVPAQANGTPTTKSPAPGAPTRSPSTPAKSPKLQKKNQKPSQVNGAPGSPTEPAGQKQHQKALPKKGVLGKSPLSALARKKARLSLVIRSPSLLQSGAKKKAQVRKAGKP
For the molecule B2, in experiment [1], the binding result is reported as “binds”.
